Consider four molecules from patent US20160046707A1.

Protein sequences, listed by entry. Tags and fused reporters are not part of them. Lines headed by an entry give the natural chain unless they say otherwise; changes in a name come on top.
UniProt P78556: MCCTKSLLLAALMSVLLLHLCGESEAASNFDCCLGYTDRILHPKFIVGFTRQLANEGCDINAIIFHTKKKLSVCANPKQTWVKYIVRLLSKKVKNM

The target in assay [1] is human CCL20 anchored via a His-tag (human) (UniProt P78556). The assay can be described thus: ELISA on His-tag anchored human CCL20, antibody titrated (x axis 'Ab conc. (ug/ml)', falling from left to right), Abs 450. A general note: ELISA stands for enzyme-linked immunosorbent assay.
Assay [2] shares this target. The assay can be described thus: ELISA, CCL20 anchored via a His-tag.

No constants are given. Whether binding was seen depends on the method and setting. Some results given as binding are weak or reduced against the parent protein; the word gives no strength.

B1: chimeric 36F7C10 antibody (36F7C10-hFc) (antibody, V domains shown)
VH: QVQLQQPGAELVKPGASVKMSCKASGYTFTNYWMHWVKQRPGQGLEWIGVIDPSDSYTTYNQKFKGKATLTVDTSSSTAYMQLSSLTSEDSAVYYCTRGNYGVDYAMDYWGQGTSVTVSS
VL: DIQMTQSPASLSASVGETVTITCGASENIYGALNWYQRKQGKSPQLLIYGATNLADGMSSRFSGSGSGRQYSLKISSLHPDDVATYYCQNVLITPYTFGGGTKLEIK
Regarding B1, in assay [1], the binding result was “binds”.

B2: mouse anti-human CCL20 monoclonal antibody 36F7C10 (antibody, V domains shown)
VH: QVQLQQPGAELVKPGASVKMSCKASGYTFTNYWMHWVKQRPGQGLEWIGVIDPSDSYTTYNQKFKGKATLTVDTSSSTAYMQLSSLTSEDSAVYYCTRGNYGVDYAMDYWGQGTSVTVSS
VL: DIQMTQSPASLSASVGETVTITCGASENIYGALNWYQRKQGKSPQLLIYGATNLADGMSSRFSGSGSGRQYSLKISSLHPDDVATYYCQNVLITPYTFGGGTKLEIK
As for B2, the binding result in assay [1] is recorded as “binds”.

B3: humanized anti-human CCL20 antibody 36LK3/36HC2 (antibody, human IgG1, kappa, V domains shown)
VH: QVQLVQSGAEVKKPGASVKVSCKASGYTFTNYWMHWVRQAPGQGLEWMGVIDPSDSYTTYAQKFQGRVTMTVDTSTSTVYMELSSLRSEDTAVYYCARGNYGVDYAMDYWGQGTLVTVSS
VL: DIQMTQSPSSLSASVGDRVTITCGASENIYGALNWYQRKPGKAPKLLIYGATNLADGVPSRFSGSGSGRDYTLTISSLQPEDFATYYCQNVLITPYTFGQGTKLEIKR
In the case of B3, the binding result in assay [2] and in assay [1] was “binds” throughout.

B4: humanized anti-human CCL20 antibody 36LC3/36HC2 (antibody, human IgG1, kappa, V domains shown)
VH: QVQLVQSGAEVKKPGASVKVSCKASGYTFTNYWMHWVRQAPGQGLEWMGVIDPSDSYTTYAQKFQGRVTMTVDTSTSTVYMELSSLRSEDTAVYYCARGNYGVDYAMDYWGQGTLVTVSS
VL: DIQMTQSPSSLSASVGDRVTITCRASENIYGALNWYQQKPGKAPKLLIYGATNLADGVPSRFSGSGSGRQYSLTISSLQPEDFATYYCQNVLITPYTFGGGTKLEIKR
As to B4, the binding result in assay [1] is “binds”.
